Reference: the supplement of paper PMC10849652
The list shows a part of the results.

Chains of the proteins cited; added tags and fusions are not shown. Lines headed by an entry give the natural chain unless they say otherwise; changes in a name come on top.
UniProt O60725, whole entry, looked up: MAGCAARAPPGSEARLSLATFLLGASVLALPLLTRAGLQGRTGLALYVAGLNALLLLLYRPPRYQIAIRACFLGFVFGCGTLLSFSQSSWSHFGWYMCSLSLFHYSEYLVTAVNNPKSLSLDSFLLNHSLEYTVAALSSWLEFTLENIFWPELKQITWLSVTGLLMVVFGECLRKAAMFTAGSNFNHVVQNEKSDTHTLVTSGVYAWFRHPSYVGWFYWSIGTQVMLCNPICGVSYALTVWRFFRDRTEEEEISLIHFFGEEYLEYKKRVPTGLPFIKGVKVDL
UniProt Q9Y2F5: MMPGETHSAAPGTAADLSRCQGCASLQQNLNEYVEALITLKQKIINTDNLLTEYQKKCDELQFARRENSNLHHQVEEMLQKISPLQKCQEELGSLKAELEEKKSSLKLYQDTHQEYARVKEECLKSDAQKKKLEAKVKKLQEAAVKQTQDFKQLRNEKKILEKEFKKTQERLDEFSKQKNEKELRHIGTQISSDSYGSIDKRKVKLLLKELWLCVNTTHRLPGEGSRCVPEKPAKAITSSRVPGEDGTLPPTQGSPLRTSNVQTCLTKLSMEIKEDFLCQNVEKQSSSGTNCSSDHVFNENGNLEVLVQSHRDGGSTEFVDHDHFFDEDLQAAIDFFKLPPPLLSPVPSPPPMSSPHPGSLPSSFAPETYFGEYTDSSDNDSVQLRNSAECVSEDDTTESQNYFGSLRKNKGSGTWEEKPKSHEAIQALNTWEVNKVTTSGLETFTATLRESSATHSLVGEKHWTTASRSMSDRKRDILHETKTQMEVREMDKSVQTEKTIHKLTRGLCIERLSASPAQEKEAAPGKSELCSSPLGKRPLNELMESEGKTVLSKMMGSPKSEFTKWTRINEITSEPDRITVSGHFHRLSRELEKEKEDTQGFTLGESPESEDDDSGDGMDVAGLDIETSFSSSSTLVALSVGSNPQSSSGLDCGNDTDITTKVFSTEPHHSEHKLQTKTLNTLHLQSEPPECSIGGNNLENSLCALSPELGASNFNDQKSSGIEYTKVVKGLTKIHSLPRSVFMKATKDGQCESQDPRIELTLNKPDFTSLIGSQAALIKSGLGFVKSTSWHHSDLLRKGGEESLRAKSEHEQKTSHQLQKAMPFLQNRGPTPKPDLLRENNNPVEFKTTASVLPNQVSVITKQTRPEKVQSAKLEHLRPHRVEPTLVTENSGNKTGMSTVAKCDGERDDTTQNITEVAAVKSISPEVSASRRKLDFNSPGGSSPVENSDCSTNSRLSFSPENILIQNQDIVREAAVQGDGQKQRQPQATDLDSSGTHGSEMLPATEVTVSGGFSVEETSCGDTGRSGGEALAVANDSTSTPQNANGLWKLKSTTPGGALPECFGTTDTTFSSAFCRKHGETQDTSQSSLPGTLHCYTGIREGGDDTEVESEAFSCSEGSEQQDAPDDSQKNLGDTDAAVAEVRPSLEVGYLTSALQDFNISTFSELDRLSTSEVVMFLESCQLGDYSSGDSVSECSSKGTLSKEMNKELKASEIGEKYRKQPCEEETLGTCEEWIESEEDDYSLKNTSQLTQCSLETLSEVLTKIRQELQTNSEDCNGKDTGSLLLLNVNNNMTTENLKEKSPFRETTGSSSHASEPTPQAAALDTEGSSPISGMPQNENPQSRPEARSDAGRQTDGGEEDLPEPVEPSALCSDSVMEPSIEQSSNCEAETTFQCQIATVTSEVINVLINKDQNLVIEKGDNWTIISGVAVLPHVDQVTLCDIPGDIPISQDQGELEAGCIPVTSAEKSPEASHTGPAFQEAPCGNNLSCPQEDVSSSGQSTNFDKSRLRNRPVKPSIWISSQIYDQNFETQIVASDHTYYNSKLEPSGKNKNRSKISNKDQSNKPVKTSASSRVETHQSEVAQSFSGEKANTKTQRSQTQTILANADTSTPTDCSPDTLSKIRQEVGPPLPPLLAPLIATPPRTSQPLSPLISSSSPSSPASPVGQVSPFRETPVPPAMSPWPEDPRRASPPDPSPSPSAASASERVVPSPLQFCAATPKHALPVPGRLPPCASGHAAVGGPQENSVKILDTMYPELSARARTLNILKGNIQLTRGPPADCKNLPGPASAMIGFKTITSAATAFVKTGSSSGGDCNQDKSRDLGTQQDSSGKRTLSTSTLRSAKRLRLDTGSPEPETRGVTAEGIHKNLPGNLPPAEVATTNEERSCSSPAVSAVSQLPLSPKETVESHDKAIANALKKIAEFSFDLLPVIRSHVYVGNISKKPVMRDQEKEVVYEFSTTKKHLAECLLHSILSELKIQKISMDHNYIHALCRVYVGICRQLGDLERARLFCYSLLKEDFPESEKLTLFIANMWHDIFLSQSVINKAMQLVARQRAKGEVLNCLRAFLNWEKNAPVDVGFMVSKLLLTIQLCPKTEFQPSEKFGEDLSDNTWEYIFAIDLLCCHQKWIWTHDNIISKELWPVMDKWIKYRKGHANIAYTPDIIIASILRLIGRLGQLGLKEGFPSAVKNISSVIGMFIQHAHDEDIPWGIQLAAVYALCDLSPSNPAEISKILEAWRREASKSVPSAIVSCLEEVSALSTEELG
UniProt Q14773: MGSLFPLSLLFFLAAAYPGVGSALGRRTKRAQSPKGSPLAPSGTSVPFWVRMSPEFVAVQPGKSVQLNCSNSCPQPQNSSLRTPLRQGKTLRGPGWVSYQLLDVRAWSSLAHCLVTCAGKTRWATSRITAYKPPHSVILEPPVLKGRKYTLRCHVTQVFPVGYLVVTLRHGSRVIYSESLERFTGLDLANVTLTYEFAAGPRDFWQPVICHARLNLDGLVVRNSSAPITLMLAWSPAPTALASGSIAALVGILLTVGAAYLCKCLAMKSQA
UniProt Q9NWB7: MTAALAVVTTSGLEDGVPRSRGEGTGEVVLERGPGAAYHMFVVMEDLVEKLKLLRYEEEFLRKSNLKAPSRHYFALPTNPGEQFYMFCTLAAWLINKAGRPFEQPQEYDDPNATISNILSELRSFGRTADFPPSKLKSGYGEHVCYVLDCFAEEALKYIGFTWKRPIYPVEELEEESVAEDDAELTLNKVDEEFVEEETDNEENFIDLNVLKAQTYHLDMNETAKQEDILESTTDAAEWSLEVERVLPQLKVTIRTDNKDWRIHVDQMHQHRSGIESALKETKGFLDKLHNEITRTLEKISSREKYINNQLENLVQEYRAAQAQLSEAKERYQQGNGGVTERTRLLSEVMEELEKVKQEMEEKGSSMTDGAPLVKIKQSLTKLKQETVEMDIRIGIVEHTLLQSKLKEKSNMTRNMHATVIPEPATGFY
UniProt A2RU49: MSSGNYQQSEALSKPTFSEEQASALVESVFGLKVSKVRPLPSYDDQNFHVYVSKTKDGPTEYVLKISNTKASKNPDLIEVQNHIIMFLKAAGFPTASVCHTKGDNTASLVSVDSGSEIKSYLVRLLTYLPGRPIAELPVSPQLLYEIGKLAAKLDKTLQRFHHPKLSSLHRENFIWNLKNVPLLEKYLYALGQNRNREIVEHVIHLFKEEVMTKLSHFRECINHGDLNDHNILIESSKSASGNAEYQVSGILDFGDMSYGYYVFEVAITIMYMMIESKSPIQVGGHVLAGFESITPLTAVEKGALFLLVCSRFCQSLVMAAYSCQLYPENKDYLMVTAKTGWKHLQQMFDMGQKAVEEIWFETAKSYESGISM
UniProt Q92598: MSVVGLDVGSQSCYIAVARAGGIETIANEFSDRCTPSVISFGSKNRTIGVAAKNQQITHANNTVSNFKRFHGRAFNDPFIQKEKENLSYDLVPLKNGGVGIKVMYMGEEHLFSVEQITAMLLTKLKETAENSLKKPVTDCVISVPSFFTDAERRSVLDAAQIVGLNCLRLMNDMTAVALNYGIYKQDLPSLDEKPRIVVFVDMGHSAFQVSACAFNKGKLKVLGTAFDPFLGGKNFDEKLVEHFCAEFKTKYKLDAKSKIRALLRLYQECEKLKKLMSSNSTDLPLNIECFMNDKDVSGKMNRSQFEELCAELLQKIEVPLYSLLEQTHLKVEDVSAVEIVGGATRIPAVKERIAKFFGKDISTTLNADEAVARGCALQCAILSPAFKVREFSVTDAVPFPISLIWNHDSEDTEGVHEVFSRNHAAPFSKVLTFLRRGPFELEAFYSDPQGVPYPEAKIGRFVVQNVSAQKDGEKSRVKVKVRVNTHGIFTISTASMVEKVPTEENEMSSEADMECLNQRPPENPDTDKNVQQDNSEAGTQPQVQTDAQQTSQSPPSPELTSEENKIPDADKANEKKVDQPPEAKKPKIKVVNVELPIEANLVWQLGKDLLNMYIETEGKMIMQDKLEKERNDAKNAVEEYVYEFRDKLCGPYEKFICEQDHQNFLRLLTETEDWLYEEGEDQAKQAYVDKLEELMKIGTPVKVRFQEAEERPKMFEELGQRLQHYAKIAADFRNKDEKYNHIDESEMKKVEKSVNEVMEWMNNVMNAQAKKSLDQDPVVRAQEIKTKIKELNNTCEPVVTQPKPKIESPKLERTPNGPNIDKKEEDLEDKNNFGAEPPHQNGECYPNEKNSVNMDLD
UniProt O14879: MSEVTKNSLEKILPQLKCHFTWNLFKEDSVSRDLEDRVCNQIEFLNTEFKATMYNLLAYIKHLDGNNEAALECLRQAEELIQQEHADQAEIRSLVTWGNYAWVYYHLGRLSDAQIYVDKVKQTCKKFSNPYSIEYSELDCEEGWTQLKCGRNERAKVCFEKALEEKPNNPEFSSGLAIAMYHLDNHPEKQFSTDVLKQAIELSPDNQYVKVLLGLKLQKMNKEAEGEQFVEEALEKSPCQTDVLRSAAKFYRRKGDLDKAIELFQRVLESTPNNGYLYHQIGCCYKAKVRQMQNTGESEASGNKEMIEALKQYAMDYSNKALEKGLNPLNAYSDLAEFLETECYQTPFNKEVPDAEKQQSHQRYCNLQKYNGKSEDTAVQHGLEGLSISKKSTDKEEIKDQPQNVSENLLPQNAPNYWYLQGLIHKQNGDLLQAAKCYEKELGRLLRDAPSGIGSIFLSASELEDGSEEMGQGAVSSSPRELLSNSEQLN
UniProt Q9H2S9: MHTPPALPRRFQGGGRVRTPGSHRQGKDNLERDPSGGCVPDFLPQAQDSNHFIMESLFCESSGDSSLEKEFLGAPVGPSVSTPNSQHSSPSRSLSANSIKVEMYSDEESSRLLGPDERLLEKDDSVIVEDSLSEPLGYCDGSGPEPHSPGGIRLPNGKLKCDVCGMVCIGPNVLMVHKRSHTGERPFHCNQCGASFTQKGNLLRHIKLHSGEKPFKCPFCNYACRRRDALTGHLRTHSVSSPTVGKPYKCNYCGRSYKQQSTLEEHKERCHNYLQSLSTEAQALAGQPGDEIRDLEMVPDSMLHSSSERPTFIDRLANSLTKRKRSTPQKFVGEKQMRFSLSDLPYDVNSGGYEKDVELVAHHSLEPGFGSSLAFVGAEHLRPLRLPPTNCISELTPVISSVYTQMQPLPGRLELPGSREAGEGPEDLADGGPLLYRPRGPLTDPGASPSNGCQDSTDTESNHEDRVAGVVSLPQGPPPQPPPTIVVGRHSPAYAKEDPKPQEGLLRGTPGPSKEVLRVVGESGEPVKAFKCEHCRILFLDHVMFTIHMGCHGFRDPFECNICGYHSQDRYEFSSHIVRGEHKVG
IGKV3D-7, A0A0C4DH55, UniProt A0A0C4DH55, whole entry, looked up: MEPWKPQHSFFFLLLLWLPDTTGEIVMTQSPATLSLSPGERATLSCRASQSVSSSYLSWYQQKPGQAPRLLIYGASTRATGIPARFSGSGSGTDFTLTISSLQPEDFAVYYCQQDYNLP
UniProt Q13099: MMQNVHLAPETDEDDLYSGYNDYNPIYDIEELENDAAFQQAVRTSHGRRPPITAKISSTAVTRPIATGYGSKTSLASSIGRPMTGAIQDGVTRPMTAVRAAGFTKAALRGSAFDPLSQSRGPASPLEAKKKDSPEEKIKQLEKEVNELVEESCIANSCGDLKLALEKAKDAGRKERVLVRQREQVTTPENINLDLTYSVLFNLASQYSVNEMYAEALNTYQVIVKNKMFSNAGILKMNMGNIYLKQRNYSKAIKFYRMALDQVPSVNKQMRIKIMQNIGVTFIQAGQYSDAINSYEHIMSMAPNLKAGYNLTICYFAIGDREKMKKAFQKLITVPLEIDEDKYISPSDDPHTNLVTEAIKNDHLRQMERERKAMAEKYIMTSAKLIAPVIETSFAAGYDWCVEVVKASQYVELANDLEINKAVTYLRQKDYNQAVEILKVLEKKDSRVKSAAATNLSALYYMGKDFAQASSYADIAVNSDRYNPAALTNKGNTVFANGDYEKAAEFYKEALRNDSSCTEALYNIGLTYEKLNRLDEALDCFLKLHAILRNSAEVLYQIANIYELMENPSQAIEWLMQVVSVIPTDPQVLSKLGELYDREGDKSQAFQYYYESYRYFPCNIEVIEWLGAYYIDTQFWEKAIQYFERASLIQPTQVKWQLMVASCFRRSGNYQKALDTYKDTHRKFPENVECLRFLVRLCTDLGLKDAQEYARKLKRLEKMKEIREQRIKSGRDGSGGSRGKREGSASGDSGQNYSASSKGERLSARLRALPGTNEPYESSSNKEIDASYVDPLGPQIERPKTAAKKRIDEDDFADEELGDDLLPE

compound: C1CCN(C1)C(=O)NC2=CC=CC(=C2)NC3=NC=C(C(=N3)NCCC4=CN=CN4)Br; experiment: log2 fold change, soluble protein after heating vs DMSO (PISA); higher = thermal stabilisation; K562 lysate, 10 uM; active = over 0.2 and 3.5 SD of the protein, either way, in both replicates (recomputed)
Procedure, shortened: (§1)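 K562 pellets were dounce-homogenised in PBS pH 7.4 containing 1 mM MgCl2, and the crude extract, at 1 mg/mL protein, was exposed to 10 μM compound for 30 min. Aliquots were heated for 3 min across 48°C-58°C, pooled, brought to 0.5% NP-40 at 4°C and spun at 21,000xg for 90 min, with the supernatant taken as soluble protein. TMTpro 16plex LC-MS/MS with equalised channel sums quantified that protein. Values are log-two fold changes in thermal stability relative to solvent controls, taken from duplicates.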

log2 fold change, inactive:
ICMT (UniProt O60725) -0.197
ICE1 (UniProt Q9Y2F5) 0.051
HYOU1, A0A494C039 -0.054
IDS (UniProt P22304) 0.152
ING2 (UniProt Q9H160) 0.03
ICAM4 (UniProt Q14773) -0.082
IFT57 (UniProt Q9NWB7) 0.093
HUWE1 isoform 2 (UniProt Q7Z6Z7) 0.235
HVCN1 (UniProt Q96D96) -0.13
HSPA8 (UniProt E9PN89) -0.045
HYKK (UniProt A2RU49) -0.089
IFIH1 (UniProt Q9BYX4) -0.033
HYDIN (UniProt Q4G0P3) -0.054
IL17RA (UniProt Q96F46) 0.206
IGSF1 isoform 4 (UniProt Q8N6C5) 0.096
HTD2 (UniProt P86397) 0.075
IFT46 isoform 2 (UniProt Q9NQC8) 0.016
HSPH1 isoform 2 (UniProt Q92598) -0.212
IFIT3 (UniProt O14879) 0.397
IKZF4 (UniProt Q9H2S9) 0.01
IDH3A isoform 2 (UniProt P50213) -0.029
HUWE1, A0A087X1S3 -0.129
IGHMBP2 (UniProt P38935) 0.097
IMPDH2 (UniProt H0Y4R1) 0.099

compound: C1CN(CCC1(CC2=CC=C(C=C2)Cl)N)C3=NC=NC4=C3C=CN4; experiment: as above
Procedure, shortened: as §1

log2 fold change, inactive:
ICMT (UniProt O60725) -0.011
ICE1 (UniProt Q9Y2F5) -0.05
HYOU1, A0A494C039 -0.041
IDS (UniProt P22304) -0.249
ING2 (UniProt Q9H160) 0.35
ICAM4 (UniProt Q14773) 0.035
IFT57 (UniProt Q9NWB7) 0.069
HUWE1 isoform 2 (UniProt Q7Z6Z7) -0.039
HVCN1 (UniProt Q96D96) -0.098
HSPA8 (UniProt E9PN89) -0.043
HYKK (UniProt A2RU49) 0.223
IFIH1 (UniProt Q9BYX4) -0.138
HYDIN (UniProt Q4G0P3) 0.022
IL17RA (UniProt Q96F46) 0
IGSF1 isoform 4 (UniProt Q8N6C5) 0.178
HTD2 (UniProt P86397) -0.042
IFT46 isoform 2 (UniProt Q9NQC8) -0.077
HSPH1 isoform 2 (UniProt Q92598) -0.007
IFIT3 (UniProt O14879) -0.099
IKZF4 (UniProt Q9H2S9) -0.169
IDH3A isoform 2 (UniProt P50213) 0.036
HUWE1, A0A087X1S3 0
IGHMBP2 (UniProt P38935) -0.023
IMPDH2 (UniProt H0Y4R1) 0.076

compound: C1COCCN1CCN2C3=CC=CC=C3N=C2NC(=O)C4=CC(=CC=C4)[N+](=O)[O-] [IRAK-1-4 Inhibitor I]; experiment: as above
Procedure, shortened: as §1

log2 fold change, inactive:
ICMT (UniProt O60725) 0.034
ICOSLG isoform 2 (UniProt O75144) 0.276
ICE1 (UniProt Q9Y2F5) 0.081
IFT81 (UniProt Q8WYA0) -0.162
ICAM4 (UniProt Q14773) -0.093
IFT57 (UniProt Q9NWB7) 0.071
IFT122 isoform 5 (UniProt Q9HBG6) 0.107
HSPA8 (UniProt E9PN89) -0.055
HYKK (UniProt A2RU49) -0.051
HSPH1 (UniProt Q5TBM3) -0.18
IGFBP4 (UniProt P22692) 0.016
HYDIN (UniProt Q4G0P3) 0.712
IGHV3-72, A0A4W8ZXM2 -0.354
HTD2 (UniProt P86397) -0.041
INO80C isoform 4 (UniProt Q6PI98) 0.08
HUWE1 (UniProt H0Y659) -0.29
HSPH1 isoform 2 (UniProt Q92598) -0.057
IFIT3 (UniProt O14879) 0.024
IKZF4 (UniProt Q9H2S9) 0.051
IGKV3D-7, A0A0C4DH55 -0.228
IGHG3 (UniProt P01860) -0.196
IFT88 (UniProt Q13099) 0.053
HUWE1, A0A087X1S3 -0.015
ING1 (UniProt Q9UK53) -0.031
IGHA2 (UniProt P01877) -0.507
IMPDH2 (UniProt H0Y4R1) 0.037
